The list does not hold the whole screen: it is rich in T/C values a quarter to a half above the control, in often repeated tests (any T/C) and in doses without a T/C. Further doses and runs are listed elsewhere. T/C is the treated group as % of the vehicle group. Some entries give survivors of the animals treated and no T/C: the source files T/C as zero there, which appears to mark a toxic dose or a test without result, not a measured value. Survivors were counted at the toxicity check, usually on the fifth day, unless a day is given; later deaths do not show. Schedules are NCI's codes, read here as Q, the interval in days (D) or hours (H), X, the number of doses. Some structures stand for samples that the source files as different forms (salt, stereo form or complex); doses refer to the form tested. Some entries hold several experiments; the values are given in rising order. For survival time, the PubChem record calls one and a half times the control and up active, and a quarter to a half above the control has no call in these data; cut-offs in other NCI protocols can differ. Some T/C values carry the count of animals alive at the toxicity check (mostly the fifth day); without a count, all were alive then. Additions like (4×) count equal records among those shown.
Test system: L1210 leukemia ip in BDF1 mice, survival T/C
Test: NCI In Vivo Anticancer Drug Screen. Data for tumor model L1210 Leukemia (intraperitoneal) in B6D2F1 (BDF1) mice
Conditions: higher T/C = longer survival

Structure (SMILES): N=c1ccn2c(n1)OC1C(O)C(CO)OC12 (configuration not stated)
- T/C (T/C endpoint: mean survival time, dose: 1.57 mg/kg/injection, schedule: Q03HX024 (ip), vehicle: water): 126 % of control
- T/C (T/C endpoint: mean survival time, dose: 50.0 mg/kg/injection, schedule: Q01DX005 (ip), vehicle: saline): 121, 134, 135, 137, 138, 139, 141, 144 (4×), 145, 151 (2×), 154, 156, 157 (3×), 160 (2×), 161, 163, 164, 165, 185 % of control
- T/C (T/C endpoint: mean survival time, dose: 50.0 mg/kg/injection, schedule: Q01DX009 (ip), vehicle: saline): 145 % of control
- T/C (T/C endpoint: mean survival time, dose: 55.0 mg/kg/injection, schedule: Q04DX003 (ip), vehicle: saline): 136 % of control
- T/C (T/C endpoint: mean survival time, dose: 87.0 mg/kg/injection, schedule: Q04DX003 (ip), vehicle: saline, evaluated on day 21): 137 % of control
- T/C (T/C endpoint: mean survival time, dose: 87.0 mg/kg/injection, schedule: Q04DX003 (ip), vehicle: saline, evaluated on day 30): 147 % of control
- T/C (T/C endpoint: mean survival time, dose: 100.0 mg/kg/injection, schedule: Q01DX005 (ip), vehicle: saline): 125, 137, 141, 146, 150, 153, 155 (2×), 156, 157, 158, 159 (2×), 162 (3×), 163, 167, 168, 177, 178 (2×), 181, 183, 187 [5 of 6 alive], 189 (2×), 200 % of control
- T/C (T/C endpoint: mean survival time, dose: 100.0 mg/kg/injection, schedule: Q01DX009 (ip), vehicle: saline, evaluated on day 9): 161 % of control
- T/C (T/C endpoint: mean survival time, dose: 100.0 mg/kg/injection, schedule: Q01DX009 (ip), vehicle: saline, evaluated on day 30): 168, 177, 177 [8 of 10 alive], 218 % of control
- T/C (T/C endpoint: mean survival time, dose: 200.0 mg/kg/injection, schedule: Q01DX001 (ip), vehicle: water): 132 and 133 % of control
- T/C (T/C endpoint: mean survival time, dose: 200.0 mg/kg/injection, schedule: Q01DX005 (ip), vehicle: saline): 156, 157, 166 [5 of 6 alive], 170, 175 (2×), 176, 178 (3×), 180, 181, 182, 183, 187, 188, 189 (2×), 191 (3×), 191 [5 of 6 alive], 193, 203, 208, 219, 261 % of control
- T/C (T/C endpoint: mean survival time, dose: 200.0 mg/kg/injection, schedule: Q01DX009 (ip), vehicle: saline, evaluated on day 9): 169 % of control
- T/C (T/C endpoint: mean survival time, dose: 200.0 mg/kg/injection, schedule: Q01DX009 (ip), vehicle: saline, evaluated on day 30): 188, 189, 210, 249 % of control
- T/C (T/C endpoint: mean survival time, dose: 200.0 mg/kg/injection, schedule: Q04DX003 (ip), vehicle: saline): 134 % of control
- T/C (T/C endpoint: mean survival time, dose: 267.0 mg/kg/injection, schedule: Q01DX009 (ip), vehicle: saline): 130 % of control [5 of 6 alive]
- T/C (T/C endpoint: mean survival time, dose: 400.0 mg/kg/injection, schedule: Q01DX001 (ip), vehicle: saline): 126, 131, 144 % of control
- T/C (T/C endpoint: mean survival time, dose: 400.0 mg/kg/injection, schedule: Q01DX001 (ip), vehicle: water): 138 [9 of 10 alive] and 140 % of control [8 of 10 alive]
- T/C (T/C endpoint: mean survival time, dose: 400.0 mg/kg/injection, schedule: Q01DX005 (ip), vehicle: saline): 183, 185 [5 of 6 alive], 188, 191, 194 (2×), 203, 207, 208, 214, 215, 216, 221, 223 (2×), 224, 229, 241, 242, 244, 245, 268, 272, 298, 316 % of control [5 of 6 alive]
- T/C (T/C endpoint: mean survival time, dose: 400.0 mg/kg/injection, schedule: Q01DX009 (ip), vehicle: saline): 144 % of control
- T/C (T/C endpoint: mean survival time, dose: 800.0 mg/kg/injection, schedule: Q01DX001 (ip), vehicle: saline): 131, 139, 148 % of control
- T/C (T/C endpoint: mean survival time, dose: 800.0 mg/kg/injection, schedule: Q01DX001 (ip), vehicle: water): 134 % of control [9 of 10 alive]
- survivor count (T/C endpoint: mean survival time, dose: 800.0 mg/kg/injection, schedule: Q01DX009 (ip), vehicle: water): 5 of 10
- T/C (T/C endpoint: mean survival time, dose: 1200.0 mg/kg/injection, schedule: Q01DX001 (ip), vehicle: saline): 143 [5 of 6 alive] and 149 % of control
- survivor count (T/C endpoint: mean survival time, dose: 1200.0 mg/kg/injection, schedule: Q01DX001 (ip), vehicle: water): 3 of 10 and 4 of 10
- survivor count (T/C endpoint: mean survival time, dose: 1600.0 mg/kg/injection, schedule: Q01DX001 (ip), vehicle: water): 1 of 10 and 3 of 10
- survivor count (T/C endpoint: mean survival time, dose: 2000.0 mg/kg/injection, schedule: Q01DX001 (ip), vehicle: water): 3 of 10 and 4 of 10
- T/C (T/C endpoint: median survival time, dose: 25.0 mg/kg/injection, schedule: Q03HX008 (oral), vehicle: water): 133 % of control
- T/C (T/C endpoint: median survival time, dose: 37.5 mg/kg/injection, schedule: Q01DX009 (ip), vehicle: water, evaluated on day 5): 190 % of control
- T/C (T/C endpoint: median survival time, dose: 37.5 mg/kg/injection, schedule: Q01DX009 (ip), vehicle: water, evaluated on day 30): 190 % of control
- T/C (T/C endpoint: median survival time, dose: 37.5 mg/kg/injection, schedule: Q01DX009 (ip), vehicle: water, evaluated on day 60): 150 and 188 % of control
- T/C (T/C endpoint: median survival time, dose: 39.0 mg/kg/injection, schedule: Q01DX008 (ip), vehicle: water, evaluated on day 7): 127 % of control
- T/C (T/C endpoint: median survival time, dose: 39.0 mg/kg/injection, schedule: Q01DX008 (ip), vehicle: water, evaluated on day 60): 127 % of control
- T/C (T/C endpoint: median survival time, dose: 39.0 mg/kg/injection, schedule: Q01DX009 (ip), vehicle: water, evaluated on day 5): 169 and 182 % of control
- T/C (T/C endpoint: median survival time, dose: 39.0 mg/kg/injection, schedule: Q01DX009 (ip), vehicle: water, evaluated on day 7): 191 % of control
- T/C (T/C endpoint: median survival time, dose: 39.0 mg/kg/injection, schedule: Q01DX009 (ip), vehicle: water, evaluated on day 31): 191 % of control
- T/C (T/C endpoint: median survival time, dose: 39.0 mg/kg/injection, schedule: Q01DX009 (ip), vehicle: water, evaluated on day 60): 172 and 180 % of control
- T/C (T/C endpoint: median survival time, dose: 50.0 mg/kg/injection, schedule: Q01DX009 (oral), vehicle: water): 133 % of control
- T/C (T/C endpoint: median survival time, dose: 50.0 mg/kg/injection, schedule: Q03HX008 (ip), vehicle: water): 127 % of control
- T/C (T/C endpoint: median survival time, dose: 50.0 mg/kg/injection, schedule: Q03HX008 (oral), vehicle: water): 144 % of control
- T/C (T/C endpoint: median survival time, dose: 65.0 mg/kg/injection, schedule: Q01DX008 (ip), vehicle: water, evaluated on day 7): 129 % of control
- T/C (T/C endpoint: median survival time, dose: 65.0 mg/kg/injection, schedule: Q01DX008 (ip), vehicle: water, evaluated on day 60): 129 % of control [7 of 8 alive]
- T/C (T/C endpoint: median survival time, dose: 65.0 mg/kg/injection, schedule: Q01DX009 (ip), vehicle: water, evaluated on day 5): 186 and 187 % of control
- T/C (T/C endpoint: median survival time, dose: 65.0 mg/kg/injection, schedule: Q01DX009 (ip), vehicle: water, evaluated on day 7): 180 and 188 % of control
- T/C (T/C endpoint: median survival time, dose: 65.0 mg/kg/injection, schedule: Q01DX009 (ip), vehicle: water, evaluated on day 31): 188 % of control
- T/C (T/C endpoint: median survival time, dose: 65.0 mg/kg/injection, schedule: Q01DX009 (ip), vehicle: water, evaluated on day 60): 180 [7 of 8 alive], 185 [7 of 8 alive], 186 % of control
- T/C (T/C endpoint: median survival time, dose: 75.0 mg/kg/injection, schedule: Q01DX009 (ip), vehicle: water, evaluated on day 5): 201 % of control
- T/C (T/C endpoint: median survival time, dose: 75.0 mg/kg/injection, schedule: Q01DX009 (ip), vehicle: water, evaluated on day 30): 201 % of control
- T/C (T/C endpoint: median survival time, dose: 75.0 mg/kg/injection, schedule: Q01DX009 (ip), vehicle: water, evaluated on day 54): 200 % of control
- T/C (T/C endpoint: median survival time, dose: 75.0 mg/kg/injection, schedule: Q01DX009 (ip), vehicle: water, evaluated on day 60): 185 and 211 % of control
- T/C (T/C endpoint: median survival time, dose: 80.0 mg/kg/injection, schedule: Q01DX001 (ip), vehicle: water): 138 % of control
- T/C (T/C endpoint: median survival time, dose: 100.0 mg/kg/injection, schedule: Q01DX005 (ip), vehicle: water): 140 % of control
- T/C (T/C endpoint: median survival time, dose: 100.0 mg/kg/injection, schedule: Q01DX009 (ip), vehicle: water, evaluated on day 5): 215 % of control
- T/C (T/C endpoint: median survival time, dose: 100.0 mg/kg/injection, schedule: Q01DX009 (ip), vehicle: water, evaluated on day 30): 216 % of control
- T/C (T/C endpoint: median survival time, dose: 100.0 mg/kg/injection, schedule: Q01DX009 (ip), vehicle: water, evaluated on day 35): 200 % of control
- T/C (T/C endpoint: median survival time, dose: 100.0 mg/kg/injection, schedule: Q01DX009 (ip), vehicle: water, evaluated on day 45): 190 % of control
- T/C (T/C endpoint: median survival time, dose: 100.0 mg/kg/injection, schedule: Q01DX009 (ip), vehicle: water, evaluated on day 60): 194, 215 (2×), 231 % of control
- T/C (T/C endpoint: median survival time, dose: 100.0 mg/kg/injection, schedule: Q03HX008 (oral), vehicle: water): 127 % of control [6 of 8 alive]
- T/C (T/C endpoint: median survival time, dose: 100.0 mg/kg/injection, schedule: Q04DX003 (ip), vehicle: water): 135 % of control
- T/C (T/C endpoint: median survival time, dose: 108.0 mg/kg/injection, schedule: Q01DX009 (ip), vehicle: water, evaluated on day 5): 200 and 203 % of control
- T/C (T/C endpoint: median survival time, dose: 108.0 mg/kg/injection, schedule: Q01DX009 (ip), vehicle: water, evaluated on day 7): 192 and 208 % of control
- T/C (T/C endpoint: median survival time, dose: 108.0 mg/kg/injection, schedule: Q01DX009 (ip), vehicle: water, evaluated on day 27): 244 % of control
- T/C (T/C endpoint: median survival time, dose: 108.0 mg/kg/injection, schedule: Q01DX009 (ip), vehicle: water, evaluated on day 30): 195 % of control [7 of 8 alive]
- T/C (T/C endpoint: median survival time, dose: 108.0 mg/kg/injection, schedule: Q01DX009 (ip), vehicle: water, evaluated on day 31): 208 % of control
- T/C (T/C endpoint: median survival time, dose: 108.0 mg/kg/injection, schedule: Q01DX009 (ip), vehicle: water, evaluated on day 33): 233 % of control
- T/C (T/C endpoint: median survival time, dose: 108.0 mg/kg/injection, schedule: Q01DX009 (ip), vehicle: water, evaluated on day 60): 192 and 200 % of control (2×)
- T/C (T/C endpoint: median survival time, dose: 150.0 mg/kg/injection, schedule: Q01DX009 (ip), vehicle: water, evaluated on day 5): 237 % of control
- T/C (T/C endpoint: median survival time, dose: 150.0 mg/kg/injection, schedule: Q01DX009 (ip), vehicle: water, evaluated on day 30): 237 % of control

Reference: PubChem BioAssay AID248 (DTP/NCI, 2004)
